The target in assay [1] is GST–IpaH1.4-C368A (catalytically dead IpaH1.4) (S. flexneri). In words: pull-down; purified catalytically dead GST–IpaH proteins on GST–Sepharose resin; cell lysate with RNF213 applied (20 mM Tris-HCl pH 8, 150 mM NaCl, 0.1% Triton X-100, 5 mM EDTA), beads washed three times, glutathione elution, bound RNF213 detected by western blot; only the target purified.
The target in assay [2] is GST–IpaH7.8-C357A (catalytically dead IpaH7.8) (S. flexneri) (UniProt P18014). The description is as above.

The chains behind the UniProt entries cited, without tags or fusion partners.
UniProt Q63HN8: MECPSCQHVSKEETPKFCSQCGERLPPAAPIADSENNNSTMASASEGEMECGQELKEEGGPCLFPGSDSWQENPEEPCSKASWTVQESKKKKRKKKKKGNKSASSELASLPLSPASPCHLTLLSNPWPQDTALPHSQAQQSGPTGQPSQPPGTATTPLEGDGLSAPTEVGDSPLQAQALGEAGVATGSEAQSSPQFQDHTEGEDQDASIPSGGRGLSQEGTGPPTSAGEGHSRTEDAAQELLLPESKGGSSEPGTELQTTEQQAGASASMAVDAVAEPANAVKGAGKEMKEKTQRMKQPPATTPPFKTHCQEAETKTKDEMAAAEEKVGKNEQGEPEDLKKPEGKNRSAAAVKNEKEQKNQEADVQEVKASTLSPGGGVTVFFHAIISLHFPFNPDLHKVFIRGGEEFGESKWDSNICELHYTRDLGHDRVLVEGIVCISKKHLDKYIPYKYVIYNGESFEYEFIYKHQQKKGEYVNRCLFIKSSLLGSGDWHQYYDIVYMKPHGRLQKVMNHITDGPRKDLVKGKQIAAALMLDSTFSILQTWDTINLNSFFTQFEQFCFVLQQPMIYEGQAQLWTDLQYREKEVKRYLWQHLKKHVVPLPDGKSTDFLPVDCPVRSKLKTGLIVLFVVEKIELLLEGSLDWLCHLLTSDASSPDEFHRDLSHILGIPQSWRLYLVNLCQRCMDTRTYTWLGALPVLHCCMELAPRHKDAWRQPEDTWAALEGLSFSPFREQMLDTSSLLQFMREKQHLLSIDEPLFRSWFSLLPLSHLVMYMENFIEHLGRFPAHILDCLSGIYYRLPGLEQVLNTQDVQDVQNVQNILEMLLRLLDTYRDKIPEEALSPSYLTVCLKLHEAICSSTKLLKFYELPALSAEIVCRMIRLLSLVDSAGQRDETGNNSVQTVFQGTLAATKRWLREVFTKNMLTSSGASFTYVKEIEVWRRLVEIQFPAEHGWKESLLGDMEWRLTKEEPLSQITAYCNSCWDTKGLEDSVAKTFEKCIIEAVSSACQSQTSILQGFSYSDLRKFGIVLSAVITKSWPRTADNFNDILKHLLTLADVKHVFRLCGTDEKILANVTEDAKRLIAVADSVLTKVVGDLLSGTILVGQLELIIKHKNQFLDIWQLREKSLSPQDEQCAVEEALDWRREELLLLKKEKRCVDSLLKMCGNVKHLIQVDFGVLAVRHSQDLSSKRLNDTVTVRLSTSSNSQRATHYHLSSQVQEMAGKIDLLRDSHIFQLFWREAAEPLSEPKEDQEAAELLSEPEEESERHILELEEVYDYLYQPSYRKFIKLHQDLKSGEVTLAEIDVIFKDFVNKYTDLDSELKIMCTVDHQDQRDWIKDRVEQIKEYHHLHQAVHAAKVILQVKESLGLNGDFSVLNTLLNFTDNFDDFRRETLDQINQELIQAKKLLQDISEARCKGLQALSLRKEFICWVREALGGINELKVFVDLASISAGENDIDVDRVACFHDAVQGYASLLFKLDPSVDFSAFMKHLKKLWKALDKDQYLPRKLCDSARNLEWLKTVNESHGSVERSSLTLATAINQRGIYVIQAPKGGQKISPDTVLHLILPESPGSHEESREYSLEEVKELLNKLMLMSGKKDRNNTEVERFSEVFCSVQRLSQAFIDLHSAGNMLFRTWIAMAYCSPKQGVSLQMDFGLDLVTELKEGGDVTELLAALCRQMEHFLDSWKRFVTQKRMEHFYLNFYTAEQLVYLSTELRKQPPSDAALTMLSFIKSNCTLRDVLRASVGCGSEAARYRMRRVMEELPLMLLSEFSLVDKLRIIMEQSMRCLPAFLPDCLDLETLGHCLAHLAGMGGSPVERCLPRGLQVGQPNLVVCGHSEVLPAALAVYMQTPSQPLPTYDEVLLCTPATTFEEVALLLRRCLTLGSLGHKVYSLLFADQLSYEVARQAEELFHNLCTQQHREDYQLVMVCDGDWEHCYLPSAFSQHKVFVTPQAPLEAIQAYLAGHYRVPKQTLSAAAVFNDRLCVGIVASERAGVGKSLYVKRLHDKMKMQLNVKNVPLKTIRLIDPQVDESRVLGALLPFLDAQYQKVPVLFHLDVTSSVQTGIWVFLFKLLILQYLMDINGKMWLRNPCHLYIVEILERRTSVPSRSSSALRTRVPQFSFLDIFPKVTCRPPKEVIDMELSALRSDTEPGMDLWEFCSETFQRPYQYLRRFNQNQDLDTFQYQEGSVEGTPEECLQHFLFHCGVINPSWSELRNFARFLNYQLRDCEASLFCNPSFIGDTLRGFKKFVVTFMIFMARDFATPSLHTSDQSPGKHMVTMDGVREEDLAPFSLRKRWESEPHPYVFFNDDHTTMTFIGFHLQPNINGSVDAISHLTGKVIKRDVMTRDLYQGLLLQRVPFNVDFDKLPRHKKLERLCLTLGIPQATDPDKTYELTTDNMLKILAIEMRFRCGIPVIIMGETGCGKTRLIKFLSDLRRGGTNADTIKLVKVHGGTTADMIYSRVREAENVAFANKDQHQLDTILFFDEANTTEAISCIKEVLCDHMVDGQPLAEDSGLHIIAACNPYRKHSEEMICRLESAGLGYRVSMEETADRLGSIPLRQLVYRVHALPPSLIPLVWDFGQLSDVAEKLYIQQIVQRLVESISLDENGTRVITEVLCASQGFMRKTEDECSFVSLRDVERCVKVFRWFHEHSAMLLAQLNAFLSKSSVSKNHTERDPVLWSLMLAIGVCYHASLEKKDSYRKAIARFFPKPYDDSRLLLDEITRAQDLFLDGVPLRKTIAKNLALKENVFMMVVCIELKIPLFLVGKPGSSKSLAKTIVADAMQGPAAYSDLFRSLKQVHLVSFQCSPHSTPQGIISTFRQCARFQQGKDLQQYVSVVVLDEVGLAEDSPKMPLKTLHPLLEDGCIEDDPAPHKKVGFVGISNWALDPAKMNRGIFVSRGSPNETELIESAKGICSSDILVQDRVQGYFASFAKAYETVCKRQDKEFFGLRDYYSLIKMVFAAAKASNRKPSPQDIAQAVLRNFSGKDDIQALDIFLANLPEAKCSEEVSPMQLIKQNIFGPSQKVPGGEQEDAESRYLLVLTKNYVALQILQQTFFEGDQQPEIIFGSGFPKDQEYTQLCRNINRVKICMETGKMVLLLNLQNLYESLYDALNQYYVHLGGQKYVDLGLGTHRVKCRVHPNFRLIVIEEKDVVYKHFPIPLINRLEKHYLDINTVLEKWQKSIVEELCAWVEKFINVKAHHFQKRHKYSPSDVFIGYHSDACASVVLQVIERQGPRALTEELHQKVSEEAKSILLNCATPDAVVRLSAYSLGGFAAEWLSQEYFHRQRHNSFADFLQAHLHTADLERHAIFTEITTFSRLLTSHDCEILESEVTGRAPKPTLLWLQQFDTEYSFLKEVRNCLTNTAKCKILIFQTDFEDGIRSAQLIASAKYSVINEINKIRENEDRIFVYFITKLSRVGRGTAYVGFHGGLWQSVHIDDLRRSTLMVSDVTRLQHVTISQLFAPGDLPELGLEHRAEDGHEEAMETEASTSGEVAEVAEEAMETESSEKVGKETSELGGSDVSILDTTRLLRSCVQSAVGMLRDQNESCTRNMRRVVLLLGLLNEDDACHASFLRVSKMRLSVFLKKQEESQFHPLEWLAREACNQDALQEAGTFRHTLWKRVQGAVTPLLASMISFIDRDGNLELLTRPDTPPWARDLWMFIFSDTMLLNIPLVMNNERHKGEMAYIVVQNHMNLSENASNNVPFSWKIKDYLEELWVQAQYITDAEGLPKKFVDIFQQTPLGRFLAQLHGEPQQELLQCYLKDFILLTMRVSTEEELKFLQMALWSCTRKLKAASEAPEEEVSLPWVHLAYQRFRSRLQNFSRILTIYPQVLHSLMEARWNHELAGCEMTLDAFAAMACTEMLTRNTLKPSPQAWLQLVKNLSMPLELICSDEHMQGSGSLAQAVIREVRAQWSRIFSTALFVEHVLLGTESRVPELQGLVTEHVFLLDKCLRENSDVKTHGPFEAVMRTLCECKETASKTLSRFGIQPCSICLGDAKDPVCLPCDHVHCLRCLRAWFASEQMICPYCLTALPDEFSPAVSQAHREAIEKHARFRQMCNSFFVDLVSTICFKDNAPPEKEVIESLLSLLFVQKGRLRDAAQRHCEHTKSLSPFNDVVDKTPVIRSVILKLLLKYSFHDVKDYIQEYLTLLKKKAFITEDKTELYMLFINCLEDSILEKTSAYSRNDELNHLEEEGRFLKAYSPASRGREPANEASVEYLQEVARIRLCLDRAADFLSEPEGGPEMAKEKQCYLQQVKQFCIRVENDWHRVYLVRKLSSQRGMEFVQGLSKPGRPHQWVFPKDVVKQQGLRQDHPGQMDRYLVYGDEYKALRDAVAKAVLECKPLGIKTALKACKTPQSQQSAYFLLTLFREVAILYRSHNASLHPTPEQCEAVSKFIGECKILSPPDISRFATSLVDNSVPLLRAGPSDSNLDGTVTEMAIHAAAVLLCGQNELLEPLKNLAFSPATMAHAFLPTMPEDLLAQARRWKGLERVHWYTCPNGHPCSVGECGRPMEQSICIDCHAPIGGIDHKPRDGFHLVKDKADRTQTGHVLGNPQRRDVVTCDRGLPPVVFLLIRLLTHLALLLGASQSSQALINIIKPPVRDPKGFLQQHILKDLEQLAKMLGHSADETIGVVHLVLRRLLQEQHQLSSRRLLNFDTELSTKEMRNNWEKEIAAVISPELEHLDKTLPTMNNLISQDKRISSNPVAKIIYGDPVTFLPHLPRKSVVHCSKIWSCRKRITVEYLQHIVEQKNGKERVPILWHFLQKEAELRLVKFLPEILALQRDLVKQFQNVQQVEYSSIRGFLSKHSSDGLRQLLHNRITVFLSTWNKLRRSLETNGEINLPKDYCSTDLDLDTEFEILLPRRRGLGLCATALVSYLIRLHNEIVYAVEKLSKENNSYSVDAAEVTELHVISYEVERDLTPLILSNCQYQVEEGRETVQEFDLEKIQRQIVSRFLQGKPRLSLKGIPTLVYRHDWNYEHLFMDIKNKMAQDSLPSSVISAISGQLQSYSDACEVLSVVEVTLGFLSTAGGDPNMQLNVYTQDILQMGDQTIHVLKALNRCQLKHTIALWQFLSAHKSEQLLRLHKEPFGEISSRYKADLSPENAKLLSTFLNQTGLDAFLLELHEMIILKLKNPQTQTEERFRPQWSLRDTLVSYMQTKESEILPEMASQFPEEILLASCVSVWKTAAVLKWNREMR

Binding data for 1 substance are collected here from article PMC12440826, “Shigella flexneri evades LPS ubiquitylation through IpaH1.4-mediated degradation of RNF213” (Nature Structural & Molecular Biology, 2025).

Results are given in words; binding and its absence hold for the method and conditions named. In cells and extracts the contact can be indirect. Some binding calls cover weakened binding; strength is not graded here.

For the substance “GFP–RNF213 (human) (from UniProt Q63HN8 1-5207) (enzyme)”, the results for the binding entry in assay [1] and in assay [2] were “binds” and “no binding”, respectively.
